At least one peptide structure holds a part that was inferred or is arguable (an end, a ring closure or a residue). Square brackets hold non-standard residues; d marks the D form. Peptide text beside a SMILES is read from it. * marks the point of attachment. X1 = COc1ccc(C[C@@H](CN[C@@H](CCCNC(=N)N)C(=O)O)N*)cc1; X2 = COc1ccc(C[C@@H](CN[C@H](CCCNC(=N)N)C(=O)O)N*)cc1; X4 = N=C(N)NCCC[C@H](NC[C@H](Cc1ccccc1)N*)C(=O)O; Hyp = O=C(O)[C@@H]1C[C@@H](O)CN1; 2Thi = N[C@@H](Cc1cccs1)C(=O)O
Experiments:
[1] = tested on: rat brain microvascular endothelial cells; test: Intracellular free calcium (fura-2 fluorescence ratio); type: cell-based
blood-brain barrier [2] = test: Dose response of blood-brain barrier permeabilizers, sucrose uptake studies; type: in vivo; settings: mice; 10 minutes after single tail vein injection
blood-brain barrier [3] = test: Time course of blood-brain barrier opening in mice (^14 C sucrose brain uptake); type: in vivo; settings: Balb/C mice; 10 μg permeabilizer A-7 i.v.; at 10 and 20 minutes; compared with no A-7

SMILES: COc1ccc(C[C@@H](CN[C@H](CCCNC(=N)N)C(=O)O)NC(=O)[C@@H]2CCCN2C(=O)[C@H](CO)NC(=O)[C@H](Cc2cccs2)NC(=O)CNC(=O)[C@@H]2C[C@@H](O)CN2C(=O)[C@@H]2CCCN2C(=O)[C@@H](N)CCCNC(=N)N)cc1 [9D-A-7] (H-RP[Hyp]G[2Thi]SP-X2)
- change in intracellular free calcium ([1]; single cell, 1 μM): no change in intracellular free calcium

SMILES: N=C(N)NCCC[C@H](NC[C@H](Cc1ccccc1)NC(=O)[C@@H]1CCCN1C(=O)[C@H](CO)NC(=O)[C@H](Cc1cccs1)NC(=O)CNC(=O)[C@@H]1CCCN1C(=O)[C@@H]1CCCN1C(=O)[C@@H](N)CCCNC(=N)N)C(=O)O [A-4, [Thi^5, Phe^8 .psi.(CH2 --NH) Arg^9]-bradykinin] (H-RPPG[2Thi]SP-X4)
- potency in ^14 C-sucrose uptake compared with the combination of bradykinin and captopril (BK+Cap) (blood-brain barrier [2]): more potent

SMILES: COc1ccc(C[C@@H](CN[C@@H](CCCNC(=N)N)C(=O)O)NC(=O)[C@@H]2CCCN2C(=O)[C@H](CO)NC(=O)[C@H](Cc2cccs2)NC(=O)CNC(=O)[C@@H]2C[C@@H](O)CN2C(=O)[C@@H]2CCCN2C(=O)[C@@H](N)CCCNC(=N)N)cc1 [permeabilizer A-7, arginine-proline-hydroxyproline-glycine-thienylalanine-serine-proline-4-Me-tyrosine-.psi.(CH2 NH)arginine] (H-RP[Hyp]G[2Thi]SP-X1)
- uptake of ^14 C-sucrose into brain (blood-brain barrier [3]): significantly higher
- concentration that gives half of the maximum achievable intracellular calcium release (ED50) ([1]; 5 cells, FIG. 13): approximately 10^-9 M
- concentrations at which intracellular calcium release appears to be saturated ([1]; 5 cells, FIG. 13): above 10^-8 M
- lowest concentration causing an increase in intracellular free calcium ([1]; 5 cells, FIG. 13): 10^-10 M
- period of decay of the calcium increase to a sustained level above baseline ([1]; single cell, 100 nM): about 100 sec
- change in intracellular free calcium ([1]; single cell, two successive stimulations with 100 nM): rapid increase in intracellular free calcium

Source: US5686416A, “Increasing blood-brain barrier permeability with permeabilizer peptides” (priority 1993, dated 1997)
